Experimental data as given in US9089539B2 (Indiana University Research and Technology Corporation, priority 2008, dated 2015).

Assay: solid-phase peptide synthesis
Conditions: whole synthesis; for final HPLC purity: analytical HPLC, UV 214 nm, C18 Vydac
[1] = scale of the general procedure 0.2 mmol (Boc/PAM), 0.1 mmole (Fmoc/Rink)

Substance	final HPLC purity [1] [% purity]	isolated yield (overall, scale of the general procedure 0.2 mmol (Boc/PAM), 0.1 mmole (Fmoc/Rink))	crude mass (scale 0.1 mmole)	isolated mass (scale 0.1 mmole)
H2N-Phe-Thr-Ser-homoCys(SO3H)-Tyr-Ser-Lys-Tyr-Leu-Asp-Ser-Arg-Arg-Ala-Gln-Asp-Phe-Val-Gln-Trp-Leu-Met-Asn-Thr-NH2	95			
HO-PLA-Thr-Ser-Glu-Tyr-Ser-Lys-Tyr-Leu-Asp-Ser-Arg-Arg-Ala-Gln-Asp-Phe-Val-Gln-Trp-Leu-Met-Asn-Thr-NH	95	10˜15% yield totally	200˜250 mg	25˜40 mg
